Measurements published in publication PMC10989685.
Changes are numbered by the printed parent chain. These are yes or no findings as the source states them, for the method shown. Where a sequence is shown, tags or fusion partners need not be part of it.

The chains behind the UniProt entries cited, without tags or fusion partners. Residues count along the entry.
UniProt E9Q7X7, residues 29-1634: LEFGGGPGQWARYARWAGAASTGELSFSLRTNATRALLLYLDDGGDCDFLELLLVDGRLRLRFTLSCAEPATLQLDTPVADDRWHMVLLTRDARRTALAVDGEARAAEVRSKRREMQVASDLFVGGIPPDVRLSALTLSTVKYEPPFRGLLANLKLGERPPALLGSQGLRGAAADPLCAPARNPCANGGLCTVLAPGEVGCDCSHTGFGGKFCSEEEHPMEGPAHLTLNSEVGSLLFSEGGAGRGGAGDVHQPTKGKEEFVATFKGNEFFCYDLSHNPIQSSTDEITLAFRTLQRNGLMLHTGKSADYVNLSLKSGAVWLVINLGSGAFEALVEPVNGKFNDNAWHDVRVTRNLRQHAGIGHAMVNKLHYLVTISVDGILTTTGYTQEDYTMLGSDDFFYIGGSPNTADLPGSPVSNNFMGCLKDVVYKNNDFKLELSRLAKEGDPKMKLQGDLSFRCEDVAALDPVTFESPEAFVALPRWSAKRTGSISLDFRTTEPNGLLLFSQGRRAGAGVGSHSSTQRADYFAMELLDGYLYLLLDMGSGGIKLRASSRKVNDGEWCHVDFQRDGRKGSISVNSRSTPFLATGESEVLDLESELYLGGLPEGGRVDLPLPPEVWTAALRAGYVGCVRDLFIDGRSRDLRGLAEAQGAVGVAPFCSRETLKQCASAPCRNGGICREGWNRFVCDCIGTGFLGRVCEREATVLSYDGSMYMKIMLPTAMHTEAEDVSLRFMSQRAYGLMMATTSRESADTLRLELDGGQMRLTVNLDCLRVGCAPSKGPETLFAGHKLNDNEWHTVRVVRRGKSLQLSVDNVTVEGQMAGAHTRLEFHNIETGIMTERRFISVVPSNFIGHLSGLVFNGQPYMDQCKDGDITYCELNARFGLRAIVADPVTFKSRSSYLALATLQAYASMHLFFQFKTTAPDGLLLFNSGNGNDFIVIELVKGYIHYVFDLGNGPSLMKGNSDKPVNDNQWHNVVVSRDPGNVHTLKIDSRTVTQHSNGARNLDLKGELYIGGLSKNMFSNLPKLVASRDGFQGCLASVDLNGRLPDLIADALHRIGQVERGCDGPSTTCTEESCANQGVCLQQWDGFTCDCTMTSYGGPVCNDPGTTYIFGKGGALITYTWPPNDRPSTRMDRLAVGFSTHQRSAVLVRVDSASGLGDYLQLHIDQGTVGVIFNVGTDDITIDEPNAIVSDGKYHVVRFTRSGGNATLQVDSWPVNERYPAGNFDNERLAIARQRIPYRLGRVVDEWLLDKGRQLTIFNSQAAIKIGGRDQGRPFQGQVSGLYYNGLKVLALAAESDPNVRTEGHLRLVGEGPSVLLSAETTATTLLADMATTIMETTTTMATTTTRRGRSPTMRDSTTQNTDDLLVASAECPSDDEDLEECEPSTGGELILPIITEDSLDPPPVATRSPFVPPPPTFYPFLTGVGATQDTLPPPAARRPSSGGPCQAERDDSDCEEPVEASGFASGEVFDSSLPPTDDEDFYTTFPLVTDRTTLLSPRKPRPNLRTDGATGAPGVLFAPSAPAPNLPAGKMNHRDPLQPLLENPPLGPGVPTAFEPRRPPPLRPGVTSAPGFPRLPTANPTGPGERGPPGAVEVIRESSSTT

Legend:
Experiment in all cases: in situ cell surface binding assay (fluorescence microscopy); HEK293T conditioned medium with Nrxn2α-Fc applied for 1 h at 4°C to COS7 cells expressing HA-tagged IgSF21 forms, in extracellular solution with 2 mM CaCl2, 1.3 mM MgCl2; bound Fc signal divided by surface HA signal and normalised to IgSF21 WT
IgSF21-HA D76E (mouse) = biological target: T1, IgSF21-HA D76E (mouse) (UniProt Q7TNR6)
T1 sequence: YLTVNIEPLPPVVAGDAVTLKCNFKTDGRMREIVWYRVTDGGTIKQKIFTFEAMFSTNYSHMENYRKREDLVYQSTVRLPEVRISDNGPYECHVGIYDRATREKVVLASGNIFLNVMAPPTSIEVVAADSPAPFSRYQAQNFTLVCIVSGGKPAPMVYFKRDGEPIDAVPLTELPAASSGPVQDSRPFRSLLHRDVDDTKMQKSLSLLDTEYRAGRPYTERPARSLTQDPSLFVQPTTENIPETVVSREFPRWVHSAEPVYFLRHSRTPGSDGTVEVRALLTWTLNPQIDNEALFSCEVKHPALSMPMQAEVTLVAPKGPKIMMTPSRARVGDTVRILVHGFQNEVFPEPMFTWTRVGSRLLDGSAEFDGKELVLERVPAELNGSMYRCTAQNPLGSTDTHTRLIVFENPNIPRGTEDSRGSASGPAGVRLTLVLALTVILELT

IgSF21-HA D76K (mouse) = biological target: T2, IgSF21-HA D76K (mouse) (UniProt Q7TNR6)
T2 sequence: T1 sequence with E52K

[1] = biological target: T3, IgSF21-HA E56N/V58T (mouse) (UniProt Q7TNR6)
T3 sequence: T1 sequence with E32N, V34T, E52D

Measured: binding

soluble Fc-tagged mouse Nrxn2α ectodomain (Nrxn2α-Fc) (from UniProt E9Q7X7 29-1634) (Fc fusion)
no binding: all assays above
